Results are given in words; binding and its absence hold for the method and conditions named. For part of these data: Binding seen in cells or lysates may run through a third protein. Some results given as binding are weak or reduced against the parent protein; the word gives no strength.
Tests used:
[1] = biological target: FGFR1 of NIH3T3 cells (mouse (endogenous in NIH3T3)) (UniProt P16092); assay: native gel or EMSA; 2D BN/SDS-PAGE; serum starved NIH3T3 cells untreated or with FGF1 (300 ng/ml, heparin 30 U/ml), scFvD2 or scFvD2-Fc, 10 min 37 °C; 2% digitonin; 4-13% BN-PAGE, then SDS-PAGE and anti-FGFR1 blot
[2] = biological target: FGFR1 of NIH3T3 cells (mouse (endogenous in NIH3T3)) (UniProt P16092); assay: cross-linking; serum starved NIH3T3 cells with FGF1 (200 ng/ml), heparin (20 U/ml), scFvD2 (90 nM) or scFvD2-Fc (90 nM), 5 min 37 °C; DSS 5 mM, 30 min on ice; FGFR1 immunoprecipitated (sc-121) and blotted
[3] = biological target: GST-tagged domain D1 of FGFR1 (GST-D1) (UniProt P11362); assay: pull-down; GST-D1 (20 µg) on Glutathione Sepharose; NusA-His-D1 preincubated 1 h 4 °C alone or with 90 nM scFvD2 or scFvD2-Fc, then 1 h 4 °C with the beads; washes 50 mM Tris, 150 mM NaCl, 0.05% Triton X-100, pH 7.4; Western blot; both purified

Protein sequences, listed by entry. Tags and fused reporters are not part of them. Residues count along the entry.
UniProt P16092, residues 22-822: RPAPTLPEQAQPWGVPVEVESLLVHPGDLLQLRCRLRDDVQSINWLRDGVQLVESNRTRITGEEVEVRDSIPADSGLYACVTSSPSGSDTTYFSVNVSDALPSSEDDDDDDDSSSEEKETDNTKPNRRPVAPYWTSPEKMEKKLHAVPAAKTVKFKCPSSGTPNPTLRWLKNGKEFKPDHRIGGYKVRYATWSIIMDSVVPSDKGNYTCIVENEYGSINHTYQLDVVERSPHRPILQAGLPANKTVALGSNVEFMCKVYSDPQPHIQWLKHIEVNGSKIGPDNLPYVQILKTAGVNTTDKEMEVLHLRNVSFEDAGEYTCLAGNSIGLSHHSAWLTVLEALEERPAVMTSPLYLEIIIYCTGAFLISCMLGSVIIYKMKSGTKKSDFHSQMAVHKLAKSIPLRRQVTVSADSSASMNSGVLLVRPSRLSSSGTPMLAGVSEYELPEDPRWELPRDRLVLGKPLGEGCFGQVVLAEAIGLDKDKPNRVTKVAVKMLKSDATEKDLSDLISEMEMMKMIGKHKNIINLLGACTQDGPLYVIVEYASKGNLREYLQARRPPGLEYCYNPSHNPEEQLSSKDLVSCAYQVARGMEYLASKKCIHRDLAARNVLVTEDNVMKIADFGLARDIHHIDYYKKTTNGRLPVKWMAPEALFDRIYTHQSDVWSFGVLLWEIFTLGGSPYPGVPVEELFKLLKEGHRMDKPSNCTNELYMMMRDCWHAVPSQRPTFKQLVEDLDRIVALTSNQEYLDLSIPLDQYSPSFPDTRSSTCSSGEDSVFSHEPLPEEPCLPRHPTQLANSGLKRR
UniProt P11362, residues 22-157: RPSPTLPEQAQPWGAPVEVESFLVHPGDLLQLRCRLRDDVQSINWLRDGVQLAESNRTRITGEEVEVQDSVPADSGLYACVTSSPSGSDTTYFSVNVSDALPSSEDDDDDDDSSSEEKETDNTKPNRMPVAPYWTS

binding [1] | binding [2] | binding [3] | Substance
binds | binds | – | FGFR1 of NIH3T3 cells (from UniProt P16092 22-822) (receptor)
– | – | binds weakly | His-tagged NusA fusion of domain D1 of FGFR1 (NusA-His-D1) (from UniProt P11362 22-157) (domain or fragment)

From publication PMC5540934
